Some values come without a unit; they compare only within their column.
Test system: Drosophila Kc nuclei
Assay: Staining of isolated Kc nuclei, epifluorescence microscopy
Settings: 256 gray scale levels

Row | Substance | average pixel intensity of the nucleoplasm of the green channel
1 | (Py)3-β-(Py)3-β-Dp-F* [Compound P9F] | about 130
2 | F*-γ-(Py)5-β-Dp-Glu-(Ao)3-(Py)5-β-Dp [Lex9F] | ~30

From US20020169296A1, “Linked, sequence-specific DNA-binding molecules” (priority 2000, published 2002)
